Measured values reported in PubChem BioAssay AID1487 (National Center for Advancing Translational Sciences (NCATS), 2009).
The other results are listed elsewhere or left out. The main result of the screen is listed elsewhere. These columns were measured beside it and carry no call. Compounds called inactive in the main read-out are mostly missing here. Words in brackets tell the shape of the fitted curve; partial curves, single points and poor fits give uncertain potencies.

Test: qHTS Assay for Modulators of Lamin A Splicing
Settings: HeLa LMNA splicing GFP/RFP minigene ratio, 48 h
Procedure, shortened: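 Read-out is the ratio of GFP to DsRed2 object intensity, acquired by 488 nm laser-scanning cytometry on HeLa lamin A-EGFP minigene reporter cells. Compound incubation 48 hrs at 37 °C in Opti-MEM with 2% FBS; DMSO 0.5% final.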

[1] = measured here: GFP splicing reporter channel
[2] = measured here: RFP viability control channel

Compound	AC50 [1]	AC50 [2]
CCNc1nc(Oc2ccc(C(=O)OCC)cc2)nc(SC)n1	17.8 µM [rising, partial curve, poor fit]	
COC(=O)c1cn[nH]c1NC(=S)Nc1ccc(Cl)c(Cl)c1		31.6 µM [rising, single point]
O=C(NC(CSCc1ccccc1)C(=O)N/N=C/c1ccc(O)cc1O)c1ccc([N+](=O)[O-])cc1 (stereo not drawn)		14.1 µM [rising, partial curve]
O=C1CC(c2ccc(F)cc2)SC(N(c2ccccc2)c2ccccc2)=N1 (stereo not drawn)		35.5 µM [rising, single point]
CCCSCCCNC(=O)c1ccc(C)c(NC(=O)c2nsc3ccccc23)c1	0.562 µM [rising, single point]	
Cn1c(SCC(=O)NNC(=O)c2ccc(Br)cc2)nnc1-c1cccnc1	0.0126 µM [rising, full curve]	
O=C(Nc1ccc(Oc2ccccc2)cc1)C1CCN(c2c3c(nc4ncnn24)CCC3)CC1	31.6 µM [falling, single point]	25.1 µM [falling, single point]
CCN(C(=O)c1ccc2c(Cl)c3c(nc2c1)CCC3)c1ccc(C)c(C)c1	22.4 µM [rising, single point]	31.6 µM [rising, single point]
COc1nccnc1NS(=O)(=O)c1ccc(N)cc1	0.891 µM [falling, partial curve]	
Cc1ccc(C)c(NC(=O)Cc2ccc(S(=O)(=O)N3CCCCC3)s2)c1		15.8 µM [rising, single point]
O=C(CN1CCN(c2ccc(O)cc2)CC1)Nc1cc(S(=O)(=O)N2CCOCC2)ccc1Cl		22.4 µM [rising, single point]
CCc1nnc(NC(=O)c2sc3nc4cc(C)ccc4cc3c2N)s1	31.6 µM [falling, single point]	35.5 µM [falling, single point]
Cc1cc(Nc2ccc(Br)cc2)nc(C)n1	4.47 µM [falling, partial curve]	
Cc1cccc(OCc2nc(CC(=O)Nc3ccc(Cl)cc3)cs2)c1		3.55 µM [falling, partial curve, poor fit]
CC[C@H](C)[C@@H]1NC(=O)c2cc([N+](=O)[O-])cc(F)c2NCCCC[C@@H](C(N)=O)NC(=O)[C@H](CCCCN)NC1=O		7.08 µM [rising, single point]
Cc1ccc(-n2nc3c4c(cccc4c2=O)-c2ccccc2-3)cc1	10 µM [falling, single point]	0.0562 µM [falling, partial curve]
C=CC(=O)NN(C)c1ncc(C(F)(F)F)cc1Cl	2.82 µM [falling, partial curve, poor fit]	20 µM [falling, single point]
O=C(O)c1ccc(N/N=C/c2ccc3c(c2)OCO3)cc1		1 µM [rising, full curve]

Reformatted in markdown: 2 of the compounds above.

| Compound | AC50 [1] | AC50 [2] |
| --- | --- | --- |
| O=C(NC(CSCc1ccccc1)C(=O)N/N=C/c1ccc(O)cc1O)c1ccc([N+](=O)[O-])cc1 (stereo not drawn) |  | 14.1 µM [rising, partial curve] |
| O=C1CC(c2ccc(F)cc2)SC(N(c2ccccc2)c2ccccc2)=N1 (stereo not drawn) |  | 35.5 µM [rising, single point] |

(more compounds)

Compound	AC50 [1]	AC50 [2]
c1ccc(N2CCN(c3ncnc4scc(-c5cccs5)c34)CC2)cc1		11.2 µM [rising, single point]
COc1cccc(-c2cc(NCc3ccccc3OC)ncn2)c1	17.8 µM [falling, single point]	35.5 µM [falling, single point]
Cc1ccc(C(=O)N/N=C\c2sccc2C)cn1		6.31 µM [falling, single point]
CCc1cc(=O)oc2cc(C)c(CN3CCCC(C)C3)c(O)c12 (stereo not drawn)		11.2 µM [rising, single point]
Cc1cc(C)nc(-n2nc(C)c3c2N(Cc2ccccc2F)C(=O)CC3c2ccc(Cl)cc2)n1 (stereo not drawn)	35.5 µM [falling, single point]	35.5 µM [falling, single point]
Cc1ccccc1-n1c(SCc2c(C)noc2C)nnc1-c1c[nH]c2ccccc12		10 µM [rising, partial curve]
CNc1nc(Sc2cccc(C(F)(F)F)c2)cc(C(F)(F)F)n1	1.58 µM [rising, full curve, poor fit]	
Cc1noc(C)c1-c1cc(Nc2ccccc2)ncn1	14.1 µM [falling, partial curve, poor fit]	
O=C(CN1CCN(S(=O)(=O)c2ccc(Cl)cc2)CC1)Nc1ccc2c(c1)CCC2	14.1 µM [rising, single point]	17.8 µM [rising, single point]
Cc1cc(O)cc(C)c1Cl	0.0141 µM [rising, partial curve, poor fit]	
O=C(Cc1ccc(-c2ccccc2)cc1)NCCS(=O)(=O)N1CCN(c2ccc(F)cc2)CC1	0.01 µM [falling, full curve, poor fit]	0.00708 µM [falling, full curve, poor fit]
COc1ccccc1/C=C1\S/C(=N/NC(=O)c2cccc(Br)c2)NC1=O	4.47 µM [rising, full curve, poor fit]	5.62 µM [rising, full curve]
COc1ccccc1NC(=O)COC(=O)C1CCN(/C=C/C(=O)C(F)(F)F)CC1	0.00447 µM [falling, full curve, poor fit]	0.00447 µM [falling, full curve, poor fit]
Cc1ccccc1CSCC(=O)Nc1ccccc1-c1ccccc1		20 µM [rising, single point]
O=C(Nc1ccc2c(c1)OCCO2)C1CCCN(S(=O)(=O)c2cccc3nsnc23)C1 (stereo not drawn)		15.8 µM [rising, single point]
Nc1cc(N)nc(SCC(=O)Nc2ccc(Br)cc2Cl)n1		11.2 µM [rising, single point]
O=C(/C=C/c1ccc(Cl)cc1Cl)NCCSCc1ccccc1		14.1 µM [rising, partial curve]
COc1ccc(N2CCN(CCCNC(=O)C3COc4ccccc4C3)CC2)cc1 (stereo not drawn)	11.2 µM [falling, partial curve, poor fit]	15.8 µM [falling, partial curve, poor fit]
